Measurements taken from the supplement of paper PMC10849652.
This is one part of the list.

Amino acid sequences for entries named in this document (tags omitted). A change or cut given only in a name is not applied to a line headed by its entry.
UniProt Q7Z7B1: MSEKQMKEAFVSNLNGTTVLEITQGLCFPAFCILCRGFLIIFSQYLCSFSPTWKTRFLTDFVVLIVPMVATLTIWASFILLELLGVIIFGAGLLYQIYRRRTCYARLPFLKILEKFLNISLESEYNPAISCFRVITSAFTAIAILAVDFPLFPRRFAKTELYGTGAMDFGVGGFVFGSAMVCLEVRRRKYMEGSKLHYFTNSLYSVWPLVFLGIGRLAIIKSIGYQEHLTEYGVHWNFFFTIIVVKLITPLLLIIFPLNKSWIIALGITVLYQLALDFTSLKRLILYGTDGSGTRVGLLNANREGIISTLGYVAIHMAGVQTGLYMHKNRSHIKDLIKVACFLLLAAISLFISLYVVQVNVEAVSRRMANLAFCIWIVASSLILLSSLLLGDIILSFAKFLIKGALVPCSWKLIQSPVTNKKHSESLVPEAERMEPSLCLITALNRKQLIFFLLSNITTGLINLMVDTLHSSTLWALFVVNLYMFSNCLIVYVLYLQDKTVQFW
UniProt Q16875: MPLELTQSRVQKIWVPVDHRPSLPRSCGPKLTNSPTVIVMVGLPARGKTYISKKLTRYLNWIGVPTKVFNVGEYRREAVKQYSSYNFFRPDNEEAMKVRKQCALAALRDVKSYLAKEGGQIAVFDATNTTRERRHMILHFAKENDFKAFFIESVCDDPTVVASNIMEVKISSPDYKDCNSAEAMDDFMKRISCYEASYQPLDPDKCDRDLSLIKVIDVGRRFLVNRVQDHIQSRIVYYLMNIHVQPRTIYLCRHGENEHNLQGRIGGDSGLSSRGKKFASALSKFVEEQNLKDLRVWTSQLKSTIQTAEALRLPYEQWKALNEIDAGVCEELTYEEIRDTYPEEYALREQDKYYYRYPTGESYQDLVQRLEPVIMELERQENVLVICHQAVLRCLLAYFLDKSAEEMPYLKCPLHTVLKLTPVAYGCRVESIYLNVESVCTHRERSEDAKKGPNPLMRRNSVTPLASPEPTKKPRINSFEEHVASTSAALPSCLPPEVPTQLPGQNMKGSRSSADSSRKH
UniProt Q96G03: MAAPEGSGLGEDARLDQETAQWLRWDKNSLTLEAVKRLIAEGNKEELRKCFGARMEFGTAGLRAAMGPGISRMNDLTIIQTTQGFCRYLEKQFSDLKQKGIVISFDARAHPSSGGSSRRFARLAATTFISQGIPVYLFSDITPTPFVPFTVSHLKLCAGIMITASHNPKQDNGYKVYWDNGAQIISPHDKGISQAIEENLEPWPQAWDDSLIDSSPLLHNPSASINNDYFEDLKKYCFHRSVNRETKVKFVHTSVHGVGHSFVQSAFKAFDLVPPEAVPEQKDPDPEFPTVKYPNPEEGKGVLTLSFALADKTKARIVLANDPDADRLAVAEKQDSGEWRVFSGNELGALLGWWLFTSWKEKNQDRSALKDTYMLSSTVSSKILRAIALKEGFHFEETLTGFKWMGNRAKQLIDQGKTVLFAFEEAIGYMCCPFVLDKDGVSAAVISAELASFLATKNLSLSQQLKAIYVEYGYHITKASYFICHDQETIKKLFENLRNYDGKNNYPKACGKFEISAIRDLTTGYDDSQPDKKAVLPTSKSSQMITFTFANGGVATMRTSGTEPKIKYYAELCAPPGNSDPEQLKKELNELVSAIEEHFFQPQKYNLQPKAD
PIGBOS1, A0A0B4J2F0, UniProt A0A0B4J2F0, whole entry, looked up: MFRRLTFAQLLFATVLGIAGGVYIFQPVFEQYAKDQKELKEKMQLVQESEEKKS
UniProt Q6PCE3: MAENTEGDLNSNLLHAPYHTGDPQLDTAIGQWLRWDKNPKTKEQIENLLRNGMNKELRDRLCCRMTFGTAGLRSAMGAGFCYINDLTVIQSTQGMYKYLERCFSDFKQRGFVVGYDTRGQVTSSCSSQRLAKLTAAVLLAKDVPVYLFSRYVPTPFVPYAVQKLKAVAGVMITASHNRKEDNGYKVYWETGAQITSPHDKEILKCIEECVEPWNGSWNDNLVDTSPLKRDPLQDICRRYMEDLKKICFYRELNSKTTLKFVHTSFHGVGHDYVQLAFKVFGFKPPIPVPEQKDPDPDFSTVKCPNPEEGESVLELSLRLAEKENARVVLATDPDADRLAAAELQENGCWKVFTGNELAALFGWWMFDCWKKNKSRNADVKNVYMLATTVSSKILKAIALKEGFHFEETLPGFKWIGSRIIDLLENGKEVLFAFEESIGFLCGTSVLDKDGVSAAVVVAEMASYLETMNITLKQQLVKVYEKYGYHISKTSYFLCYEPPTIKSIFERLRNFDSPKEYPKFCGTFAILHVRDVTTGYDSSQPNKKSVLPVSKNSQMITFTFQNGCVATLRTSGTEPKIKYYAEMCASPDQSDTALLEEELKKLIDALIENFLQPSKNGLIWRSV
UniProt P18669: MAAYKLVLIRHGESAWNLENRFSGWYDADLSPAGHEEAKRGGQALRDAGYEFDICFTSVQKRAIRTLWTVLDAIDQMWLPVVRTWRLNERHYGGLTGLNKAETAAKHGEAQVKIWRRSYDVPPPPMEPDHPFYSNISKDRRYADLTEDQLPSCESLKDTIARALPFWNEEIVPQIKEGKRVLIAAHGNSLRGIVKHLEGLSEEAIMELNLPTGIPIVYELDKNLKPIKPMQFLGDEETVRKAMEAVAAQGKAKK
UniProt Q9NRX4: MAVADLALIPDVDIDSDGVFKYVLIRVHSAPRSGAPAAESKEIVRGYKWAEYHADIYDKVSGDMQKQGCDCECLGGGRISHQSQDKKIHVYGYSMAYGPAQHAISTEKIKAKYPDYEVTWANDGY
UniProt P17858: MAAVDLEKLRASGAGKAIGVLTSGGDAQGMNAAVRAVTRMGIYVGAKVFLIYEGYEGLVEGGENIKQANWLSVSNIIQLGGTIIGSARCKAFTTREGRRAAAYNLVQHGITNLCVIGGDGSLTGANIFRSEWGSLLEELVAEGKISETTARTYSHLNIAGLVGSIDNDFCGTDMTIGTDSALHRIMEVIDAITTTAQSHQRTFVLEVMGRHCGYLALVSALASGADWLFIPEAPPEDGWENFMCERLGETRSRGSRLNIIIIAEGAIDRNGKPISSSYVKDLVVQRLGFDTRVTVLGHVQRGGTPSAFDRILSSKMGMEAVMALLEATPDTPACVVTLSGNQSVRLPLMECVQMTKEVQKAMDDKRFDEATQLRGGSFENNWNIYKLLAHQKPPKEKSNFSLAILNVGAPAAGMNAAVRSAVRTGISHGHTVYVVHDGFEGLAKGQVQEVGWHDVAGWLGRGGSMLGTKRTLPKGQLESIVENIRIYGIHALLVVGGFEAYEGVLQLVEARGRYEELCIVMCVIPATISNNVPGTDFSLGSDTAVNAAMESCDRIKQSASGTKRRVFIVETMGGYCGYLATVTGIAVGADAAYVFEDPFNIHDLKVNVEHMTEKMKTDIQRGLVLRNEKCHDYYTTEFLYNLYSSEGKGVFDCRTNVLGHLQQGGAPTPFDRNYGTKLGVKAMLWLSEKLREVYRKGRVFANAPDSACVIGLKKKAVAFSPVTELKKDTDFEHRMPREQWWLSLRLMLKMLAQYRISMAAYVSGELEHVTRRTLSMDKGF
UniProt Q9Y263: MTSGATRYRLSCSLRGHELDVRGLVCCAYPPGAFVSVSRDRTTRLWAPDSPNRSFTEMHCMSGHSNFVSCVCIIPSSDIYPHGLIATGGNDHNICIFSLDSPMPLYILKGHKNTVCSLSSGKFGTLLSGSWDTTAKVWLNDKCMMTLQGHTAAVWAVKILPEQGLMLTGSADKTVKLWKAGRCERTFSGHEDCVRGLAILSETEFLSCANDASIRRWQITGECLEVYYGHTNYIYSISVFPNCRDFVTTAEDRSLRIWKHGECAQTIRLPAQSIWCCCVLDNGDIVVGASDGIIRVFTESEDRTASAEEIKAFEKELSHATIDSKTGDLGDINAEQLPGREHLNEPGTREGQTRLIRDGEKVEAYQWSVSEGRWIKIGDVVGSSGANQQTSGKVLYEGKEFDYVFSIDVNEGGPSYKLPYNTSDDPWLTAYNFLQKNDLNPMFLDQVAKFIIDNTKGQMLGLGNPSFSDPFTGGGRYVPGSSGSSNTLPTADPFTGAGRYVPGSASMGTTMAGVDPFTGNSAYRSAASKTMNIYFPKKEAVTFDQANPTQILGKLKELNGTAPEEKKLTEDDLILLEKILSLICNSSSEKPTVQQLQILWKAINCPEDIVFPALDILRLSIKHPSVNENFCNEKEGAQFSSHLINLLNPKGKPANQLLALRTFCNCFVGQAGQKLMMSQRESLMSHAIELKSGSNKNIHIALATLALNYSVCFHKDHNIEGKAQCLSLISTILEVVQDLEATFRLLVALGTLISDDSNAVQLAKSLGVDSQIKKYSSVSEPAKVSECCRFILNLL
UniProt P42356, whole entry, looked up: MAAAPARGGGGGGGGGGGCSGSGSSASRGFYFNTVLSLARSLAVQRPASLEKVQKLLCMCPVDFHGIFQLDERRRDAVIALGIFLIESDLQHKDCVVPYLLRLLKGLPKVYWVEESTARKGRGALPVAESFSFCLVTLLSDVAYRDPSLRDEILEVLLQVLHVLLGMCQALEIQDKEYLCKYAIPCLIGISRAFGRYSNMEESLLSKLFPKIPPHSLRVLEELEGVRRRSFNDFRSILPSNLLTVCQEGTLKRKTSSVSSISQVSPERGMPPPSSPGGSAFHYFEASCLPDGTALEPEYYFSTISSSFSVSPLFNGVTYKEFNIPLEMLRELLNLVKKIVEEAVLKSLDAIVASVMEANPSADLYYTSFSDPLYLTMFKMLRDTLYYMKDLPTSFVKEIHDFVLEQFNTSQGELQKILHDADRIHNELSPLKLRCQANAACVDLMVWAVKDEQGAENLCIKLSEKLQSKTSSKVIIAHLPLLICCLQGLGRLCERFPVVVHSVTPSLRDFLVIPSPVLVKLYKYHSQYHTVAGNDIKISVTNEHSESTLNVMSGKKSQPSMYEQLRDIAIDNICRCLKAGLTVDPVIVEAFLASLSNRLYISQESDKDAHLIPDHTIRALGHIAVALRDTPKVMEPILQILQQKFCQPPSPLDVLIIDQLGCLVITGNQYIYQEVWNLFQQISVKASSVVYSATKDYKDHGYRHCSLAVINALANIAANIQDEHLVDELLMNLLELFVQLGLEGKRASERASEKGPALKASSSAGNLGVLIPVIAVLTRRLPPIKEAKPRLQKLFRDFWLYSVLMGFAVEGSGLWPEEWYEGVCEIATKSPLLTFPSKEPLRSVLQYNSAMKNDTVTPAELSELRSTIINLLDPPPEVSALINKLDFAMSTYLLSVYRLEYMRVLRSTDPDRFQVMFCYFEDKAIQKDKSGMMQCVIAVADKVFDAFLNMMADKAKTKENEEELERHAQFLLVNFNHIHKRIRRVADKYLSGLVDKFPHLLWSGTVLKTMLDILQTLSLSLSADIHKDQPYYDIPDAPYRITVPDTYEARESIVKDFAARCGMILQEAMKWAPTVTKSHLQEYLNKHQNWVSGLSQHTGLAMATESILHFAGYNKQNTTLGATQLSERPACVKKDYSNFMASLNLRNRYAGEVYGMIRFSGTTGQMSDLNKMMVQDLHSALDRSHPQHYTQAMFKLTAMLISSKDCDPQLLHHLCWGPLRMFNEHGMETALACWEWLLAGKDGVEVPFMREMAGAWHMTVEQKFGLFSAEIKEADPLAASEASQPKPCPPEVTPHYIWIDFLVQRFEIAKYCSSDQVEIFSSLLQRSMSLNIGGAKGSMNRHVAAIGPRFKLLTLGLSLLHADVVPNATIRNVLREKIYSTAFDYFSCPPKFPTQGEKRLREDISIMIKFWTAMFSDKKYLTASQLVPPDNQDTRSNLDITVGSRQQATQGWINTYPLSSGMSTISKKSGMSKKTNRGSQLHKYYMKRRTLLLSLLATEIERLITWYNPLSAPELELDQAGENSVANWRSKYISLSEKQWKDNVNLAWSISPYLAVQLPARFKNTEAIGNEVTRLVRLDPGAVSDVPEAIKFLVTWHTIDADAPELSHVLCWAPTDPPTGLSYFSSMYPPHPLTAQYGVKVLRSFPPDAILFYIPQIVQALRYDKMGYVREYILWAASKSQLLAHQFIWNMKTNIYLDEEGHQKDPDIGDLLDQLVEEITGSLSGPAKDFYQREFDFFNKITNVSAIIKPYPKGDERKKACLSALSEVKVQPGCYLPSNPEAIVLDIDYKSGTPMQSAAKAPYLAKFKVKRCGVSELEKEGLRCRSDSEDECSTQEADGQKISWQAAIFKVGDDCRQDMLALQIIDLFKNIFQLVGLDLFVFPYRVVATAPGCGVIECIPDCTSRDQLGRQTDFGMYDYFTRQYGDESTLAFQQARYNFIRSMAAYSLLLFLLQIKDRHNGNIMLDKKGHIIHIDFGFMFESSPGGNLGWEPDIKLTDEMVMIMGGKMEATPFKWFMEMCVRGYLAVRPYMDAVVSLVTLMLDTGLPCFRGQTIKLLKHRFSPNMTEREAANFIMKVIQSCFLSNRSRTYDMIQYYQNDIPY
UniProt Q9GZP4: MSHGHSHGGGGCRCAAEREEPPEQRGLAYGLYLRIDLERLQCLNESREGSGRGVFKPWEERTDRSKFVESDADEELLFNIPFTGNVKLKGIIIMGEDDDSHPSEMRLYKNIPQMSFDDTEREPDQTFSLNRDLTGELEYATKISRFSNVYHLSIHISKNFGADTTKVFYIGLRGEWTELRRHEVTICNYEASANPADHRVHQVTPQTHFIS

compound: CN(C)CC(=O)Nc1ccc2[nH]c(=O)c3ccccc3c2c1; assay: log2 fold change, soluble protein after heating vs DMSO (PISA); higher = thermal stabilisation; K562 cells, 10 uM, 30 min; active = over 0.2 and 3.5 SD of the protein, either way, in both replicates (recomputed)
Procedure, shortened: (§1)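 K562 cells (2×10^6 cells/mL) were treated with 10 μM compound for 30 min, and aliquots were heated for 3 min over 48°C-58°C. Pooled aliquots were extracted in PBS with 0.5% NP-40 at 4°C, and the supernatant after 21,000xg for 90 min was measured by TMTpro 16plex LC-MS/MS with channel sums equalised. Reported thermal stability, relative to control samples and from duplicates, is a log2 fold change.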

log2 fold change, inactive:
PIGW (UniProt Q7Z7B1) 0.06
PGP (UniProt A6NDG6) -0.01
PFKM isoform 3 (UniProt P08237) -0.017
PFKFB3 isoform 4 (UniProt Q16875) 0.034
PHB2 (UniProt Q99623) -0.032
PGM2 (UniProt Q96G03) 0
PIGBOS1, A0A0B4J2F0 0.053
PHACTR2 isoform 4 (UniProt O75167) -0.095
PKLR (UniProt P30613) -0.012
PHKB isoform 3 (UniProt Q93100) 0.062
PFDN4 (UniProt Q9NQP4) -0.045
PGM2L1 (UniProt Q6PCE3) -0.094
PHF19 isoform 2 (UniProt Q5T6S3) 0.07
PGAM1 (UniProt P18669) -0.002
PLCH1 (UniProt Q4KWH8) 0.008
PFKP (UniProt Q01813) 0.015
PHPT1 (UniProt Q9NRX4) 0.018
PHB (UniProt P35232) -0.024
PFKFB4 (UniProt Q16877) 0.016
PIK3R2 (UniProt O00459) 0.052
PFKL isoform 2 (UniProt P17858) -0.01
PFDN2 (UniProt Q9UHV9) -0.008
PHF6 (UniProt Q8IWS0) -0.063
PHF3 (UniProt Q92576) -0.057
PHACTR4 isoform 2 (UniProt Q8IZ21) -0.025
PEX6 (UniProt Q13608) 0.054
PLAA (UniProt Q9Y263) 0.068
PGS1 (UniProt Q32NB8) 0.002
PI4KA (UniProt P42356) -0.028
PITHD1 (UniProt Q9GZP4) -0.046
PLEC (UniProt Q15149) -0.037

compound: CN(CCOC1=CC=C(C=C1)C[C@H]2C(=O)NC(=O)S2)C3=CC=CC=N3 (racemic) [rosiglitazone]; assay: as above
Procedure, shortened: as §1

log2 fold change, inactive:
PIGW (UniProt Q7Z7B1) 0.014
PGP (UniProt A6NDG6) 0.03
PFKM isoform 3 (UniProt P08237) -0.001
PLA2G12A (UniProt Q9BZM1) 0.169
PFKFB3 isoform 4 (UniProt Q16875) -0.045
PHB2 (UniProt Q99623) -0.001
PGM2 (UniProt Q96G03) 0.01
PIGBOS1, A0A0B4J2F0 0.256
PHACTR2 isoform 4 (UniProt O75167) 0.048
PKLR (UniProt P30613) 0.019
PHKB isoform 3 (UniProt Q93100) 0.046
PFDN4 (UniProt Q9NQP4) 0.024
PGM2L1 (UniProt Q6PCE3) 0.004
PHF19 isoform 2 (UniProt Q5T6S3) 0.061
PGAM1 (UniProt P18669) 0.013
PLCH1 (UniProt Q4KWH8) 0.055
PFKP (UniProt Q01813) 0.006
PHPT1 (UniProt Q9NRX4) 0.006
PHB (UniProt P35232) -0.003
PFKFB4 (UniProt Q16877) 0.039
PIK3R2 (UniProt O00459) 0.058
PFKL isoform 2 (UniProt P17858) 0.007
PFDN2 (UniProt Q9UHV9) 0.011
PHF6 (UniProt Q8IWS0) -0.085
PHF3 (UniProt Q92576) -0.134
PHACTR4 isoform 2 (UniProt Q8IZ21) -0.004
PEX6 (UniProt Q13608) 0.007
PLAA (UniProt Q9Y263) 0.036
PGS1 (UniProt Q32NB8) -0.027
PI4KA (UniProt P42356) 0.015
PITHD1 (UniProt Q9GZP4) -0.067
PLEC (UniProt Q15149) -0.059

compound: CN1C2=C(C3=C1C(=O)N(N=C3)CC4=CC(=CC=C4)N)SC(=C2)S(=O)C; assay: as above
Procedure, shortened: as §1

log2 fold change, inactive:
PIGW (UniProt Q7Z7B1) -0.083
PGP (UniProt A6NDG6) -0.033
PFKM isoform 3 (UniProt P08237) -0.048
PLA2G12A (UniProt Q9BZM1) 0.046
PFKFB3 isoform 4 (UniProt Q16875) -0.122
PHB2 (UniProt Q99623) -0.038
PGM2 (UniProt Q96G03) -0.046
PIGBOS1, A0A0B4J2F0 -0.082
PHACTR2 isoform 4 (UniProt O75167) 0.137
PHKB isoform 3 (UniProt Q93100) 0.022
PFDN4 (UniProt Q9NQP4) 0
PGM2L1 (UniProt Q6PCE3) -0.036
PHF19 isoform 2 (UniProt Q5T6S3) -0.043
PGAM1 (UniProt P18669) -0.064
PLCH1 (UniProt Q4KWH8) -0.015
PFKP (UniProt Q01813) -0.099
PHPT1 (UniProt Q9NRX4) -0.076
PHB (UniProt P35232) 0.003
PFKFB4 (UniProt Q16877) -0.04
PIK3R2 (UniProt O00459) -0.002
PFKL isoform 2 (UniProt P17858) -0.089
PFDN2 (UniProt Q9UHV9) -0.017
PHF6 (UniProt Q8IWS0) 0.295
PHF3 (UniProt Q92576) 0.218
PHACTR4 isoform 2 (UniProt Q8IZ21) -0.043
PEX6 (UniProt Q13608) -0.011
PLAA (UniProt Q9Y263) -0.064
PGS1 (UniProt Q32NB8) -0.017
PI4KA (UniProt P42356) 0.123
PITHD1 (UniProt Q9GZP4) -0.039
PLEC (UniProt Q15149) 0.192
